Experimental data as given in PMC11574364.
The exact form of at least one protein or probe is not confirmed. For some of these results: Where a protein sequence is shown, tags need not be part of it.

Amino acid sequences for entries named in this document (tags omitted). A change or cut given only in a name is not applied to a line headed by its entry.
UniProt Q9UBK9, whole entry: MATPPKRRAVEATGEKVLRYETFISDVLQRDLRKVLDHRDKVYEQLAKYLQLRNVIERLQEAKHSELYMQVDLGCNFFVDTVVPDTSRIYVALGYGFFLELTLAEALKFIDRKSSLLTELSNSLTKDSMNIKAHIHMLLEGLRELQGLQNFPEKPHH
UniProt Q96IT1: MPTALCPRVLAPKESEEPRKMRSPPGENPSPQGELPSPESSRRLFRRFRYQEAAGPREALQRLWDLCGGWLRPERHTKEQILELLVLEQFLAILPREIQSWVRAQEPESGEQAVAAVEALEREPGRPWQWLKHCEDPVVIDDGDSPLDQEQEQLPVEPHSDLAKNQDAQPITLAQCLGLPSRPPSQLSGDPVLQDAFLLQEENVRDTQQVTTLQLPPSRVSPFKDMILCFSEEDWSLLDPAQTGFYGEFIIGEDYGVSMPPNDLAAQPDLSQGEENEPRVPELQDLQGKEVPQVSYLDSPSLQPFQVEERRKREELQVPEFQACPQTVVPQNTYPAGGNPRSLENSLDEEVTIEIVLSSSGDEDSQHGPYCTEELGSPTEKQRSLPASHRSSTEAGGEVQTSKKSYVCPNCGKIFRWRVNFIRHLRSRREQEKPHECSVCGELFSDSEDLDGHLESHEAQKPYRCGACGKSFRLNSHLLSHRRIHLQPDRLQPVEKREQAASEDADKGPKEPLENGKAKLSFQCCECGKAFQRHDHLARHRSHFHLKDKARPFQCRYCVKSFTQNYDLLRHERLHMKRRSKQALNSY
UniProt Q8NFB2: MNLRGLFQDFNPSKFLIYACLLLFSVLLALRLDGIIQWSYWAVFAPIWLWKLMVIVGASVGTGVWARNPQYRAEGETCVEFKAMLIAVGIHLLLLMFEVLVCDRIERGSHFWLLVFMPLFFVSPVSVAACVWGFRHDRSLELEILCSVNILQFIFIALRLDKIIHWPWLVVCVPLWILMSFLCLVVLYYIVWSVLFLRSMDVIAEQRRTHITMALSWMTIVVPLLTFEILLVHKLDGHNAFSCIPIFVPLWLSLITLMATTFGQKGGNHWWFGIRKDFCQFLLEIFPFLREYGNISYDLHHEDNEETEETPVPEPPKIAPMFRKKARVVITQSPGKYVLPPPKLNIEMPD
UniProt Q9Y698: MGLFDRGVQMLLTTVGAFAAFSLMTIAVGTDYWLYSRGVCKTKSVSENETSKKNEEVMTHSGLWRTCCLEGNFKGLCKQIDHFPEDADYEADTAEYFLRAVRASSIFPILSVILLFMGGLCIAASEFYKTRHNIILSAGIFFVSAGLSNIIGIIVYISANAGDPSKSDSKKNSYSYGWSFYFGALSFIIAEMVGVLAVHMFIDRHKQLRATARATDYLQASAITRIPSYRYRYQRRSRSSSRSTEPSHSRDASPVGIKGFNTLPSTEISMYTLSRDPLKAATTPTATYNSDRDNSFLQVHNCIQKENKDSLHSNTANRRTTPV

Experiments:
Test in all cases: human ORF protein microarray
DNASE1L1 (Homo sapiens) = biological target: T1, DNASE1L1 (Homo sapiens) (UniProt P49184); settings: 5' phosphate; Domain array: 20 mM Tris-HCl pH 7.4, 200 mM KCl, 0.2 mM EDTA, 0.05% NP40, 2 ug/ul heparin, overnight 4 C. ORF array: PBS pH 7.0 with RNase inhibitor, 100 ng RNA, 1 h.; recombinant protein; protein details: N-terminal GST-6xHis; label: internal DY647 at G18; letters put together from the description
T1 sequence (looked up, limits assumed): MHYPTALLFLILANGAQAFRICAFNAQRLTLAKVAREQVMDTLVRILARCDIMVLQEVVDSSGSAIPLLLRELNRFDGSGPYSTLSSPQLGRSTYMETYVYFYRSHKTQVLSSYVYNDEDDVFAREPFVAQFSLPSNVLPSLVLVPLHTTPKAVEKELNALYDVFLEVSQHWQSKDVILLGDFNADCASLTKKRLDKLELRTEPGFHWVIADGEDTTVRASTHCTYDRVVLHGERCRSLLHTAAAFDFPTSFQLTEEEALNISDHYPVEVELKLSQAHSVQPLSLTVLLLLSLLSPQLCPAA

DTNA (Homo sapiens) = biological target: T2, DTNA (Homo sapiens) (UniProt Q9Y4J8); settings: 5' phosphate; Domain array: 20 mM Tris-HCl pH 7.4, 200 mM KCl, 0.2 mM EDTA, 0.05% NP40, 2 ug/ul heparin, overnight 4 C. ORF array: PBS pH 7.0 with RNase inhibitor, 100 ng RNA, 1 h.; recombinant protein; protein details: N-terminal GST-6xHis; label: internal DY647 at G18; letters put together from the description
T2 sequence (looked up, limits assumed): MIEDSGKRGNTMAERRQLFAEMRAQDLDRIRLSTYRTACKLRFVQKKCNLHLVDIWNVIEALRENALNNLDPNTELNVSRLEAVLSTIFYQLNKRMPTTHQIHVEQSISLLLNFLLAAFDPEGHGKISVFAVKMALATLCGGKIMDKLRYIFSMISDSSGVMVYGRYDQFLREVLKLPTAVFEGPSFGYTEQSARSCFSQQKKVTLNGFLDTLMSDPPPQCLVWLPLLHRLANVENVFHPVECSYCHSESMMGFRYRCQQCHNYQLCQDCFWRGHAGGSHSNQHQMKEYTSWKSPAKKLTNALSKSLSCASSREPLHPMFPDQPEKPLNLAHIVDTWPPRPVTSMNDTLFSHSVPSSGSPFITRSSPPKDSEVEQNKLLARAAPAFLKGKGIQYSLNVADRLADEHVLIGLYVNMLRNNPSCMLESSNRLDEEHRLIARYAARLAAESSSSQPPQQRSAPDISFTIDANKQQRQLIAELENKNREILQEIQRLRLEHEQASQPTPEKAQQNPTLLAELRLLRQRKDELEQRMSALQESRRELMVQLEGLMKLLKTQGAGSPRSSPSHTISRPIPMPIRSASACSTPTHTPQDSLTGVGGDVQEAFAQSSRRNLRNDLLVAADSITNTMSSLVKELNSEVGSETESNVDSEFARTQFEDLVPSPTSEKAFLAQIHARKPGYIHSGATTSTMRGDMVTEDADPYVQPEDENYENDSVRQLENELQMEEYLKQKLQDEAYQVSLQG

UXT (Homo sapiens) = UXT (Homo sapiens) (UniProt Q9UBK9); settings: 5' phosphate; Domain array: 20 mM Tris-HCl pH 7.4, 200 mM KCl, 0.2 mM EDTA, 0.05% NP40, 2 ug/ul heparin, overnight 4 C. ORF array: PBS pH 7.0 with RNase inhibitor, 100 ng RNA, 1 h.; recombinant protein; protein details: N-terminal GST-6xHis; label: internal DY647 at G18; letters put together from the description
ZNF496 (Homo sapiens) = ZNF496 (Homo sapiens) (UniProt Q96IT1); settings: 5' phosphate; Domain array: 20 mM Tris-HCl pH 7.4, 200 mM KCl, 0.2 mM EDTA, 0.05% NP40, 2 ug/ul heparin, overnight 4 C. ORF array: PBS pH 7.0 with RNase inhibitor, 100 ng RNA, 1 h.; recombinant protein; protein details: N-terminal GST-6xHis; label: internal DY647 at G18; letters put together from the description
TMEM185A (Homo sapiens) = TMEM185A (Homo sapiens) (UniProt Q8NFB2); settings: 5' phosphate; Domain array: 20 mM Tris-HCl pH 7.4, 200 mM KCl, 0.2 mM EDTA, 0.05% NP40, 2 ug/ul heparin, overnight 4 C. ORF array: PBS pH 7.0 with RNase inhibitor, 100 ng RNA, 1 h.; recombinant protein; protein details: N-terminal GST-6xHis; label: internal DY647 at G18; letters put together from the description
GNAS (Homo sapiens) = settings: 5' phosphate; amino-C6 U at position 18; Domain array: 20 mM Tris-HCl pH 7.4, 200 mM KCl, 0.2 mM EDTA, 0.05% NP40, 2 ug/ul heparin, overnight 4 C. ORF array: PBS pH 7.0 with RNase inhibitor, 100 ng RNA, 1 h.; recombinant protein; protein details: N-terminal GST-6xHis; label: internal Cy5 or DY647
DNAJB8 (Homo sapiens) = biological target: T3, DNAJB8 (Homo sapiens) (UniProt Q8NHS0); settings: 5' phosphate; amino-C6 U at position 18; Domain array: 20 mM Tris-HCl pH 7.4, 200 mM KCl, 0.2 mM EDTA, 0.05% NP40, 2 ug/ul heparin, overnight 4 C. ORF array: PBS pH 7.0 with RNase inhibitor, 100 ng RNA, 1 h.; recombinant protein; protein details: N-terminal GST-6xHis; label: internal Cy5 or DY647
T3 sequence (looked up, limits assumed): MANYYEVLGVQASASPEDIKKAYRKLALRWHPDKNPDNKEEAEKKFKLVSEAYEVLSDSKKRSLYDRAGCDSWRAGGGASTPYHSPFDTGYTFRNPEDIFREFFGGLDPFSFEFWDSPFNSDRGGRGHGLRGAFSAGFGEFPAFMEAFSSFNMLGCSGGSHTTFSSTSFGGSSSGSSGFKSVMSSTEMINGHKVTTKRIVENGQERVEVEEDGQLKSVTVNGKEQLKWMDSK

CACNG2 (Homo sapiens) = CACNG2 (Homo sapiens) (UniProt Q9Y698); settings: 5' phosphate; amino-C6 U at position 18; Domain array: 20 mM Tris-HCl pH 7.4, 200 mM KCl, 0.2 mM EDTA, 0.05% NP40, 2 ug/ul heparin, overnight 4 C. ORF array: PBS pH 7.0 with RNase inhibitor, 100 ng RNA, 1 h.; recombinant protein; protein details: N-terminal GST-6xHis; label: internal Cy5 or DY647
OR4K5 (Homo sapiens) = biological target: T4, OR4K5 (Homo sapiens) (UniProt Q8NGD3); settings: 5' phosphate; amino-C6 U at position 18; Domain array: 20 mM Tris-HCl pH 7.4, 200 mM KCl, 0.2 mM EDTA, 0.05% NP40, 2 ug/ul heparin, overnight 4 C. ORF array: PBS pH 7.0 with RNase inhibitor, 100 ng RNA, 1 h.; recombinant protein; protein details: N-terminal GST-6xHis; label: internal Cy5 or DY647
T4 sequence (looked up, limits assumed): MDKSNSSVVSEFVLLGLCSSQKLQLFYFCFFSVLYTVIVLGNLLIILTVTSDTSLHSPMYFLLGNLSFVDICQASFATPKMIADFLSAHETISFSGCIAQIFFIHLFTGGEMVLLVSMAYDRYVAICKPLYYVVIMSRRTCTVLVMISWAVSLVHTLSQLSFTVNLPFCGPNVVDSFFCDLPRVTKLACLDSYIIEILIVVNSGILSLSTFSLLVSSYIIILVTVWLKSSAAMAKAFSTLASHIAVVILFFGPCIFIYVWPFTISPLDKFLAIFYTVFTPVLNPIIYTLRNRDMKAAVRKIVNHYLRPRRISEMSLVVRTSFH

SLC30A6 (Homo sapiens) = biological target: T5, SLC30A6 (Homo sapiens) (UniProt Q6NXT4); settings: 5' phosphate; amino-C6 U at position 18; Domain array: 20 mM Tris-HCl pH 7.4, 200 mM KCl, 0.2 mM EDTA, 0.05% NP40, 2 ug/ul heparin, overnight 4 C. ORF array: PBS pH 7.0 with RNase inhibitor, 100 ng RNA, 1 h.; recombinant protein; protein details: N-terminal GST-6xHis; label: internal Cy5 or DY647
T5 sequence (looked up, limits assumed): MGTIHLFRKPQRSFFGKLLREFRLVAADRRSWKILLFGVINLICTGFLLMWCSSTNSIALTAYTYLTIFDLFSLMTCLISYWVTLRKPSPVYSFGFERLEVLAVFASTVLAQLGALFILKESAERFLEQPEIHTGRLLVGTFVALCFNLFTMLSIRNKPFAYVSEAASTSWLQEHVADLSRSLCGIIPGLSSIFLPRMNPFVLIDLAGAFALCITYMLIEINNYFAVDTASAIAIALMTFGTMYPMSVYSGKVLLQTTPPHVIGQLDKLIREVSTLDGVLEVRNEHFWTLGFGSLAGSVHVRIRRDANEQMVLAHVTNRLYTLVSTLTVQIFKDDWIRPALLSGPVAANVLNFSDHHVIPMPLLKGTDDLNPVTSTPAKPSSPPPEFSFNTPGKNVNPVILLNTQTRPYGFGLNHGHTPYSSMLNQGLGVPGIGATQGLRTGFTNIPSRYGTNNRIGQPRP

Measured: binding result

CAGUGCAAUGAUGAAAGGGCAU [miR-130b (internal labeling)]
binds: DNASE1L1 (Homo sapiens) | DTNA (Homo sapiens)

UAGCUUAUCAGACUGAUGUUGA [miR-21 (internal labeling)]
binds: UXT (Homo sapiens) | ZNF496 (Homo sapiens) | TMEM185A (Homo sapiens)

UGAGGUAGUAGGUUGUGUGGUU [let-7b (internal labeling)]
binds: GNAS (Homo sapiens) | DNAJB8 (Homo sapiens) | CACNG2 (Homo sapiens) | OR4K5 (Homo sapiens) | SLC30A6 (Homo sapiens)
